Experimental data as given in article PMC5736349.

Chains of the proteins cited; added tags and fusions are not shown.
UniProt P52332: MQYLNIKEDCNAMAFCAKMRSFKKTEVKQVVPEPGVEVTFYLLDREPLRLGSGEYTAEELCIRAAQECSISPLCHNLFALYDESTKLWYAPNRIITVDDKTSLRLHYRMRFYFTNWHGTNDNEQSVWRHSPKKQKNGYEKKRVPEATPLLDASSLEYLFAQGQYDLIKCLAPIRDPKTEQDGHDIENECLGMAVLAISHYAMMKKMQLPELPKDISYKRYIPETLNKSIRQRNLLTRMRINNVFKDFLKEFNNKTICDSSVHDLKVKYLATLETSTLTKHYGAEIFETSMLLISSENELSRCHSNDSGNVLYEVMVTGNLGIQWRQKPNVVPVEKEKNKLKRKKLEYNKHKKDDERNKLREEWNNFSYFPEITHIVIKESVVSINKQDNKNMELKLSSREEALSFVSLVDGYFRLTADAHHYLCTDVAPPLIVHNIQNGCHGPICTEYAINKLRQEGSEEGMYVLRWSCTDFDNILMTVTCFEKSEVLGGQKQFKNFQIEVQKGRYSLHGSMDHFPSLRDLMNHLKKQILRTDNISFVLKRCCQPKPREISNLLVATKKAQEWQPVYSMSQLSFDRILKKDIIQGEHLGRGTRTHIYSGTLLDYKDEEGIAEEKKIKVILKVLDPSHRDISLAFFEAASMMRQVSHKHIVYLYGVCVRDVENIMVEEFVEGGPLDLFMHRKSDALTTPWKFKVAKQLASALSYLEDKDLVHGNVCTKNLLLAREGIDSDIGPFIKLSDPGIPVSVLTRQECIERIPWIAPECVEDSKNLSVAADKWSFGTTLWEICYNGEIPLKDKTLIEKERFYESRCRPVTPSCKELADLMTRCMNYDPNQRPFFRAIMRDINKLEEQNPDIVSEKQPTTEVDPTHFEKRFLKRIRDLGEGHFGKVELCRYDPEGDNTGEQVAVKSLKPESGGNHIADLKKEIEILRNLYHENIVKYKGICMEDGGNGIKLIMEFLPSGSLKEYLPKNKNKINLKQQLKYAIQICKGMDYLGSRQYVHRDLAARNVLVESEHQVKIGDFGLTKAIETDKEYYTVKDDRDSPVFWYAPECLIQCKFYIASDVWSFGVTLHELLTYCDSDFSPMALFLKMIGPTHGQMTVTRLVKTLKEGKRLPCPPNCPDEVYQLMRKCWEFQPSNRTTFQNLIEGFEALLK
UniProt Q62120: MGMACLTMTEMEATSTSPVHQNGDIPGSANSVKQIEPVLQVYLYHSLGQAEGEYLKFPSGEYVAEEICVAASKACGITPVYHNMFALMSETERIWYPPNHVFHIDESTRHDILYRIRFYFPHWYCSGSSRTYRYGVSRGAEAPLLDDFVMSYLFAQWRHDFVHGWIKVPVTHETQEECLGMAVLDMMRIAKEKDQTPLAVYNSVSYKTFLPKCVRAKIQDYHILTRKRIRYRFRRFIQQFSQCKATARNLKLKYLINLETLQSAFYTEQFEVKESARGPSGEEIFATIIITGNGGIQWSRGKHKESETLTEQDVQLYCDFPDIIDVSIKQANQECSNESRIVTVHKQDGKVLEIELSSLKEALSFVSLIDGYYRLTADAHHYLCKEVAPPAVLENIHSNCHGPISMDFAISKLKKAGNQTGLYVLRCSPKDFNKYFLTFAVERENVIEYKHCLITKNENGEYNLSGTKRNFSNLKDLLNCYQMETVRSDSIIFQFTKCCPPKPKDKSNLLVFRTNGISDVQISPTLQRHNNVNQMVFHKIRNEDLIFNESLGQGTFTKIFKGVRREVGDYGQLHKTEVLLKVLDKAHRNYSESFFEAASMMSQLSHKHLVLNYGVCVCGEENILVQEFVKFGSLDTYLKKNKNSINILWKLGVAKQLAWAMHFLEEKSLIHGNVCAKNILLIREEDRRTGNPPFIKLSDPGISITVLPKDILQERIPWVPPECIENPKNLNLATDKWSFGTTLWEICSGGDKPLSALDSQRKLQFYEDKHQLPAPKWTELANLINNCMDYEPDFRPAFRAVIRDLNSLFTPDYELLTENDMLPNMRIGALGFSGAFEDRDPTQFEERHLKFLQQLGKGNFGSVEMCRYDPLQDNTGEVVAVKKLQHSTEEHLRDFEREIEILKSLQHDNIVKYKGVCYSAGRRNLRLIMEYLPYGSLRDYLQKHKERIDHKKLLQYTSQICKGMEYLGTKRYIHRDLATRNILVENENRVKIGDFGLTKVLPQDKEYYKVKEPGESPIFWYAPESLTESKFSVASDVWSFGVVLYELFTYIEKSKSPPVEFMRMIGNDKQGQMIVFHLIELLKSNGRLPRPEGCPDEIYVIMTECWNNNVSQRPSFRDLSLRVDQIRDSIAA

Key:
[1] = biological target: T1, Atoh1-GFP (knock-in, in mouse tissue) (mouse (endogenous knock-in in Nd2::SmoA1 tumours and cerebellum)) (UniProt P48985); test: affinity purification with mass spectrometry; GFP-trap beads on lysate of 10^8 Atoh1-positive/CD15-negative (non-initiating) cells of Nd2::SmoA1 Atoh1-GFP tumors; overnight at 4°C; 50 mM Tris pH 8.1, 137.5 mM NaCl, 2 mM EDTA, 0.5% Triton-X-100
T1 sequence: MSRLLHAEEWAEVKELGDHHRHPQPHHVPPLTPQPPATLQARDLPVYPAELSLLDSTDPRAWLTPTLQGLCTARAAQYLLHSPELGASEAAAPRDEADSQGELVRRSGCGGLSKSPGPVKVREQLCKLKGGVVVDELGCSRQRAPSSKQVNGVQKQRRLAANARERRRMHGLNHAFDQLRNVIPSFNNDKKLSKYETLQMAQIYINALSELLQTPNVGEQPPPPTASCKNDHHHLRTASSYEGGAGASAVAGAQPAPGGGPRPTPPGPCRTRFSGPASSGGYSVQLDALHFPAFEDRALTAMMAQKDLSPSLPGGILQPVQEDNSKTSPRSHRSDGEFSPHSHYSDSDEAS

[2] = biological target: T1, Atoh1-GFP (knock-in, in mouse tissue) (mouse (endogenous knock-in in Nd2::SmoA1 tumours and cerebellum)); test: condition: only in CD15-negative (non-initiating) tumor cells; affinity purification with mass spectrometry; GFP-trap beads on lysate of 10^8 Atoh1-positive/CD15-negative (non-initiating) cells of Nd2::SmoA1 Atoh1-GFP tumors; overnight at 4°C; 50 mM Tris pH 8.1, 137.5 mM NaCl, 2 mM EDTA, 0.5% Triton-X-100
[3] = biological target: T1, Atoh1-GFP (knock-in, in mouse tissue) (mouse (endogenous knock-in in Nd2::SmoA1 tumours and cerebellum)); test: affinity purification with mass spectrometry; GFP-trap beads on lysate of 10^8 Atoh1-positive/CD15-positive (tumor-initiating) cells of Nd2::SmoA1 Atoh1-GFP tumors; overnight at 4°C; 50 mM Tris pH 8.1, 137.5 mM NaCl, 2 mM EDTA, 0.5% Triton-X-100

| binding [1] | binding [2] | binding [3] | Substance |
| --- | --- | --- | --- |
| binds | – | – | Jak1 (from UniProt P52332 1-1153) (enzyme) |
| – | no binding | binds | Janus kinase 2 (Jak2) (from UniProt Q62120 1-1132) (enzyme) |

These are yes or no findings as the source states them, for the method shown. In cells and extracts the contact can be indirect. A yes stands for co-enrichment or nearness to the bait. Other partners may have been found. For part of these data: No binding means not detected with the bait. Where a sequence is shown, tags or fusion partners need not be part of it.
